{"source": "PubChem BioAssay AID504467", "about": "(National Center for Advancing Translational Sciences (NCATS), 2011)", "note": "Among all 330,000 compounds or so, about 7,700 (2.3%) were called active. This list was built around the results that the source calls inconclusive (neither active nor inactive); the mix of calls is not that of the screen. The call rests on the fitted dose curve; in most records, active means well fitted inhibition curve with a large enough effect; inconclusive means small, poorly fitted or top-dose-only effect, or effect the other way; inactive means flat fitted curve, though single readings scatter. A potency beside an inconclusive call is a rough fit, not a confirmed value. On the % scale 0 is the no-effect control and ±100 the full control effect; potency means the concentration at half of the fitted maximal effect."}
{"experiment": "qHTS screen for small molecules that inhibit ELG1-dependent DNA repair in human embryonic kidney (HEK293T) cells expressing luciferase-tagged ELG1; further: nearly all actives have a fitted effect of over 55% in size", "conditions": "HEK293T ELG1-luciferase reporter, luminescence, 16 h, DNA damage induced by 5-fluorouridine; activity change, negative = inhibition: at 46.1 µM (top of the series)", "outline": "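Cells (2,000 per well) received 5-fluorouridine plus test compound or DMSO and were incubated 16 hr at 37 °C, 5% CO2. Luciferase activity was read by luminescence 30 min after ONE-Glo addition; signal suppression marked inhibition of damage-induced ELG1 function.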"}
{"smiles": "CCC(=O)c1cn(CC(=O)Nc2ccccc2F)c2ccccc12", "activity change, negative = inhibition": "inactive: -2.05%"}
{"smiles": "COc1ccc(C(=O)N2CCN(CCNC(=O)C(=O)Nc3ccc(F)cc3)CC2)cc1", "Potency": "inconclusive: 13 µM [inhibitor, single point]"}
{"smiles": "COc1cccc(N/C(=N/C(=S)Nc2ccc(C)cc2C)Nc2nc(C)cc(C)n2)c1", "Potency": "active: 25.9 µM"}
{"smiles": "O=C(O)c1c2c(nc3ccccc13)/C(=C/c1ccc(OC(F)F)cc1)CCC2", "Potency": "inconclusive: 14.6 µM [activator, partial curve]"}
{"smiles": "COc1cccc(NS(=O)(=O)c2ccc3c(c2)N(C(C)=O)CCS3)c1", "activity change, negative = inhibition": "inactive: 2.2%"}
{"smiles": "COc1cc(C(=O)N/N=C(\\C)Cc2ccccc2)cc(OC)c1OC", "Potency": "inconclusive: 29.1 µM [activator, partial curve, poor fit]"}
{"smiles": "CC1(C)CC2(CC(c3ccccc3)c3ccc(O)cc3O2)NC(=S)N1", "note": "(configuration not stated)", "activity change, negative = inhibition": "inactive: 3.15%"}
{"smiles": "COc1ccc(-n2sc3ccc(F)cc3c2=O)cc1", "Potency": "inconclusive: 5.17 µM [activator, single point]"}
{"smiles": "Cc1cccc(-n2ncc3c(N4CC(C)CC(C)C4)ncnc32)c1", "note": "(configuration not stated)", "Potency": "inconclusive: 2.31 µM [activator, partial curve]"}
{"smiles": "Cc1ccc(C(=O)CCc2ccc(N)cc2)cc1", "Potency": "inconclusive: 18.3 µM [activator, single point]"}
{"smiles": "Cc1cc(O)c(-c2cc(C(=O)Nc3cccnc3)[nH]n2)cc1C", "Potency": "inconclusive: 2.59 µM [activator, partial curve]"}
{"smiles": "O=C1CCc2cc(S(=O)(=O)Nc3ccccc3F)cc3c2N1CCC3", "activity change, negative = inhibition": "inactive: 13.3%"}
{"smiles": "O=C(Nc1ccc2oc(-c3cccc4ccccc34)nc2c1)c1ncn[nH]1", "Potency": "inconclusive: 8.2 µM [activator, partial curve]"}
{"smiles": "COc1ccc(C(C)=O)c2c(O)cccc12", "activity change, negative = inhibition": "inactive: 3.19%"}
{"smiles": "COc1ccc(-c2cc(C(=O)N3CCN(c4ncccn4)CC3)c3ccccc3n2)c(OC)c1", "Potency": "active: 9.2 µM"}
{"smiles": "CSc1nnc(NC(=O)C23CC4CC(CC(C4)C2)C3)s1", "Potency": "inconclusive: 9.2 µM [activator, partial curve]"}
{"smiles": "COc1ccc(/C=C2\\SC(=NCc3ccccc3)N(Cc3ccccc3)C2=O)cc1OC", "Potency": "active: 13 µM"}
{"smiles": "Cc1ccc(/C(N)=N/OC(=O)CCCc2ccccc2)cc1", "Potency": "inconclusive: 23.1 µM [activator, partial curve]"}
{"smiles": "COc1ccccc1/C=C/C(=O)N1CCOCC1", "activity change, negative = inhibition": "inactive: 12.5%"}
{"smiles": "CC1CC(C)(C)NC(=S)N1CCCC(=O)Nc1ccc(Cl)cc1", "note": "(configuration not stated)", "Potency": "inconclusive: 29.1 µM [inhibitor, partial curve, poor fit]"}
{"smiles": "Cc1c(C(=O)NC(=S)NCC(C)C)oc2ccccc12", "Potency": "inconclusive: 9.2 µM [activator, partial curve]"}
{"smiles": "Cc1c(Cl)cccc1NC(=S)N1CCc2ccccc2C1", "activity change, negative = inhibition": "inactive: 4.97%"}
{"smiles": "COc1ccc(/C=N/Nc2nnc(Cc3ccc(OC)c(OC)c3)c(=O)[nH]2)cc1", "Potency": "inconclusive: 3.66 µM [inhibitor, partial curve, poor fit]"}
{"smiles": "C=CCOc1ccc(/C=C/C(=O)OCC(=O)NCc2cccc(OC)c2)cc1", "Potency": "inconclusive: 25.9 µM [activator, single point]"}
{"smiles": "O=C(O)c1cc(-c2ccc(/C=N/Nc3ccc([N+](=O)[O-])cn3)o2)ccc1Cl", "Potency": "inconclusive: 2.06 µM [inhibitor, partial curve]"}
{"smiles": "CCOc1ccc(CCNC(=O)CSc2cc(=O)n(C)c3ccc(Cl)cc23)cc1OCC", "Potency": "inconclusive: 29.1 µM [inhibitor, single point]"}
{"smiles": "NC(=O)/C(=C/c1cccnc1)NC(=O)c1ccccc1", "activity change, negative = inhibition": "inactive: 5.09%"}
{"smiles": "CCCN1Cc2cccc(C(=O)Nc3cc(OC)cc(OC)c3)c2C1=O", "Potency": "inconclusive: 5.17 µM [inhibitor, partial curve, poor fit]"}
{"smiles": "Cc1ncoc1C(=O)Nc1ccc2c(c1)OCCO2", "Potency": "inconclusive: 9.2 µM [activator, partial curve]"}
{"smiles": "NCCCCCNC(=O)c1nc[nH]c1C(=O)NCC(=O)OCc1ccccc1", "activity change, negative = inhibition": "inactive: -13.6%"}
{"smiles": "O=C(N/N=C/c1ccc(O)cc1)c1ccc(COc2cc(Cl)ccc2Cl)o1", "activity change, negative = inhibition": "inactive: 20.5%"}
{"smiles": "CCOC(=O)Cn1nnnc1CN(Cc1ccc(OC)cc1)Cc1cc2cc(CC)ccc2[nH]c1=O", "Potency": "inconclusive: 29.1 µM [inhibitor, single point]"}
{"smiles": "Cc1c(NC(=S)NC(=O)c2ccccc2Br)c(=O)n(-c2ccccc2)n1C", "activity change, negative = inhibition": "inactive: -4.77%"}
{"smiles": "COc1cc(NC(=O)c2cc(C)no2)c(OC)cc1Cl", "activity change, negative = inhibition": "inactive: -3.75%"}
{"smiles": "CCOC(=O)N1CCN(c2nc3ccccc3nc2C(C#N)C(=O)NCCc2ccccc2)CC1", "note": "(configuration not stated)", "Potency": "inconclusive: 35.5 µM [inhibitor, single point]"}
{"smiles": "CCOC(=O)c1cnc2ccc(OCC)cc2c1N1CCN(c2ccccc2OC)CC1", "Potency": "active: 14.6 µM"}
{"smiles": "COC(=O)c1ccc(COc2cc(O)c3c(c2)OC(C)(C)CC3=O)cc1", "activity change, negative = inhibition": "inactive: -12.2%"}
{"smiles": "CCC(=O)NCCc1nc2cc(NC(=O)c3ccc(Cl)cc3)ccc2n1C", "Potency": "inconclusive: 2.31 µM [activator, full curve]"}
{"smiles": "Cc1c(N/C=C/C(=O)c2ccc(Cl)cc2)c(=O)n(-c2ccccc2)n1C", "activity change, negative = inhibition": "inactive: 18.7%"}
{"smiles": "O=C(N/N=C/c1ccc(-c2cccc(C(F)(F)F)c2)o1)c1ccccc1O", "Potency": "inconclusive: 11.6 µM [inhibitor, partial curve]"}
{"smiles": "CCCC(=O)N(CCN(Cc1ccccc1)C(=O)CCC)Cc1ccccc1", "Potency": "inconclusive: 20.6 µM [inhibitor, single point]"}
{"smiles": "Cc1ccn2c(C(=O)N/N=C/c3ccc(CNC(=O)C(=O)Nc4ccc(C)c(C)c4)o3)c(C)nc2c1", "Potency": "inconclusive: 14.6 µM [inhibitor, partial curve]"}
{"smiles": "COc1ccc(-c2nnn(Cc3nc(N)nc(N4CCCCC4)n3)n2)cc1", "Potency": "inconclusive: 18.4 µM [inhibitor, single point]"}
{"smiles": "CNC(=O)c1ccsc1NC(=O)c1ccc(S(=O)(=O)N2CCOCC2)cc1", "Potency": "inconclusive: 16.4 µM [inhibitor, single point]"}
{"smiles": "O=C1CSc2ccccc2N1Cc1ccc(F)cc1", "activity change, negative = inhibition": "inactive: 16%"}
{"smiles": "Cc1cccc(OCc2n[nH]c(=S)n2C2CCCCC2)c1", "activity change, negative = inhibition": "inactive: -14.8%"}
{"smiles": "COc1cccc(CCNC(=O)c2ccc(C#N)cc2)c1", "Potency": "inconclusive: 18.3 µM [activator, partial curve]"}
